Usually AC50 stands for the concentration at which the activity in the assay is half-maximal.

Drawing on PubChem BioAssay AID493014 (National Center for Advancing Translational Sciences (NCATS), 2011), this text covers AC50 for 63 compounds.

The list shows a part of the results. The main result of the screen is listed elsewhere. These columns were measured beside it and carry no call. The list favours compounds with an active or inconclusive main result. Words in brackets tell the shape of the fitted curve; partial curves, single points and poor fits give uncertain potencies.

This assay in a line: qHTS Assay to Find Inhibitors of Chronic Active B-Cell Receptor Signaling. The note with it: ABC-DLBCL IkBa-CBG/CBR reporter, luminescence ratio (green luciferase fused to IkBa over red control in TMD8 lymphoma cells), 4 h. The method, boiled down:
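Cell line TMD8 (human ABC DLBCL), stably expressing tet-inducible CBG68-IkBa fusion and CBR; IMDM/0.5% FBS; cpd up to 46 uM; dox induction, 4 h, 37C/5% CO2; dual luminescence; green/red ratio; MG132 control.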

Where [1] appears, read: measured here: CBR red luminescence, cell number.
Setting [2] is: measured here: IkBa-CBG green luminescence.

Consider `COC(CNC(=O)c1cccnc1)OC`, for which the AC50 under setting [1] is 3.55 µM [rising, full curve].
On the same count and under the same terms, then `O=C1c2ccccc2NC(c2ccc(-c3cccs3)o2)N1O` (configuration not stated), with 16.4 µM [falling, single point]; and `NC(=O)Nc1ccc(C(=O)OCC(=O)Nc2ccc(Cl)cn2)cc1`, with 12.6 µM [falling, partial curve, poor fit]; and `CC(C)n1c(O)c(N=NC(=O)C2COc3ccccc3O2)c2ccccc21` (configuration not stated), with 4.47 µM [rising, full curve, poor fit].
Turning to `CN(C)S(=O)(=O)c1cccc(NC(=O)c2cc3c(=O)n4ccccc4nc3s2)c1`, under setting [1], the AC50 is 29.1 µM [rising, single point].
The same measure, in the same setting: then `CN(CC(=O)OCC(=O)Nc1ccccc1)S(=O)(=O)c1ccc(Cl)cc1`, with 1.3 µM [falling, full curve, poor fit]; and `COC(=O)C1=C(C)N(Cc2ccccc2)C(=O)/C1=C\c1ccco1`, with 11.2 µM [falling, single point].
On the same count and under the same terms, the same measure for `O=C(Cc1ccccc1)Nc1nc(-c2cccs2)cs1`: 7.94 µM [falling, partial curve, poor fit]; for `COCCOC(=O)c1c(C)oc2ccc(OC(=O)COc3c(F)c(F)c(F)c(F)c3F)cc12`: 18.4 µM [rising, partial curve, poor fit]; for `CCN(Cc1ccccc1)C(=O)CC1Oc2ccccc2NC1=O` (configuration not stated): 0.206 µM [rising, full curve, poor fit].
On the same count and under the same terms, the same measure for `Cc1ccc(CNC(=O)CCc2nc(-c3cccs3)no2)cc1`: 6.51 µM [rising, single point].
On to `O=C(CN1CCN(C(=O)c2ccco2)CC1)Nc1ccc(Br)cc1`, for which the AC50 under setting [1] was 1 µM [rising, full curve, poor fit].
The same measure, in the same setting: then `NC1=NC(=Nc2ccc(Cl)cc2)c2ccccc21`, with 14.6 µM [falling, partial curve]; and `COc1cccc(CNCc2cc(OC)cc(OC)c2)c1`, with 15.8 µM [falling, single point]; and `CCOC(=O)Nc1ccc2c(c1)N(C(=O)N1CCN(C)CC1)c1ccccc1S2`, with 20.6 µM [falling, partial curve].
On the same count and under the same terms, then `COc1ccc(CN(C)C(=O)COC(=O)c2ccc3c(c2)OCO3)cc1OC`, with 6.51 µM [rising, single point].
Same read-out and setting: the same measure for `O=[N+]([O-])c1cc([N+](=O)[O-])c(N2CCCCCC2)cc1NCCO`: 31.6 µM [rising, single point].
With `COc1ccccc1NC(=S)Nc1ccc2cn[nH]c2c1`, the half-maximal activity concentration (AC50) under setting [1] was 11.2 µM [falling, partial curve, poor fit].
Consider `CCOc1ccc2oc(C(=O)OCC(=O)N3CC(C)OC(C)C3)c(C)c2c1` (configuration not stated), for which, under setting [1], the AC50 is 0.164 µM [falling, full curve, poor fit].
On the same count and under the same terms, the same measure for `Nc1ncc(-n2cncn2)c(-c2ccccc2)n1`: 4.47 µM [falling, partial curve, poor fit].
Take `N#CCSc1nc2ccccc2c(=O)n1CCCC(=O)NCc1ccco1`: the AC50 was 0.631 µM [falling, partial curve, poor fit] under setting [1] and 0.794 µM [rising, full curve, poor fit] under setting [2].
Take `COc1cccc(NC(=O)c2ccc(NCCCN3CCC(C)CC3)c([N+](=O)[O-])c2)c1`: the half-maximal activity concentration (AC50) under setting [1] is 11.2 µM [falling, partial curve].
Turning to `COc1cccc2sc3ccc(NCc4ccc5c(c4)OCO5)cc3c(=O)c12`, under setting [1], the half-maximal activity concentration (AC50) was 35.5 µM [falling, single point].
`CCCc1cc(C(=O)Nc2ccc(C)cc2)no1`: under setting [1], the AC50 was 35.5 µM [falling, single point].
Still for that read-out and setting: the same measure for `CCN(CC)c1ccc2cc(C(N)=O)/c(=N\NC(=O)c3ccncc3)oc2c1`: 20 µM [rising, single point]; for `c1ccc2c(Nc3ccc(N4CCOCC4)cc3)nc(N3CCOCC3)nc2c1`: 35.5 µM [falling, single point].
Still for that read-out and setting: the same measure for `O=C(Nc1ccccn1)C1CCN(S(=O)(=O)c2ccccc2)CC1`: 1.16 µM [rising, partial curve]; for `Cc1ccn2cc(-c3ccc(S(=O)(=O)N4CCOCC4)cc3)nc2c1`: 3.98 µM [rising, full curve].
Same read-out and setting: then `COc1ccccc1NC(=O)C1C2CCCCC21` (configuration not stated), with 7.94 µM [rising, partial curve, poor fit]; and `CCCCn1c(N)c(N(CCOC)C(=O)CCS(=O)(=O)c2ccc(Cl)cc2)c(=O)[nH]c1=O`, with 3.26 µM [falling, partial curve, poor fit].
Consider `CC1CC(C)CN(C(=O)/C=C/c2ccc([N+](=O)[O-])s2)C1` (configuration not stated), for which the AC50 under setting [1] is 3.16 µM [rising, partial curve].
On the same count and under the same terms, then `O=C(Oc1ccc(/C=N/NC(=O)c2ccccc2F)cc1)c1ccccc1`, with 0.282 µM [falling, full curve, poor fit]; and `CCOC(=O)c1ccc(NC(=O)CCc2nc(-c3ccc(C)cc3)no2)cc1`, with 29.1 µM [rising, partial curve, poor fit]; and `CC(/C=C1\SC(=S)N(CCCC(=O)Nc2ccc(C(=O)O)c(O)c2)C1=O)=C\c1ccccc1`, with 7.31 µM [falling, partial curve].
As for `O=C(NC1CCCC1)C(c1ccc(F)cc1)N(Cc1ccccc1Cl)C(=O)CCl` (configuration not stated), the AC50 under setting [1] was 23.1 µM [falling, single point].
The same measure, in the same setting: the same measure for `COc1ccccc1CNC(=O)Cc1c[nH]c2ccccc12`: 11.2 µM [falling, partial curve]; for `COc1ccc(/C(N)=N/OC(=O)c2ccc([N+](=O)[O-])c(C)c2)cc1OC`: 0.1 µM [rising, full curve, poor fit]; for `Cc1cc(-c2ccccc2)nc(SCc2ccc(C(=O)O)cc2)n1`: 11.2 µM [falling, partial curve].
Same read-out and setting: then `CSC(=NCCCN1CCOCC1)NS(=O)(=O)c1cccs1`, with 35.5 µM [falling, single point]; and `Cn1c(C(O)c2ccc3c(c2)OCO3)nc2ccccc21` (configuration not stated), with 6.51 µM [rising, single point].
The same measure, in the same setting: the same measure for `CC1(C)c2[nH]c3ccccc3c2C[C@H]2C(=O)N(CCCCCO)CC(=O)N21`: 0.562 µM [rising, full curve, poor fit]; for `CCSC1=N/C(=C\c2ccc(C)s2)C(=O)S1`: 14.6 µM [rising, partial curve]; for `COc1ccc(C2N(C(=O)N(C)C)CCN2S(=O)(=O)c2ccc(OC)cc2)cc1` (configuration not stated): 6.31 µM [falling, single point].
For the compound `Cc1cc(=O)[nH]c(SCC(=O)Nc2nnc(SCc3ccccc3)s2)n1`, the AC50 under setting [1] is 25.1 µM [falling, single point] and the AC50 under setting [2] is 14.1 µM [rising, partial curve, poor fit].
As to `CCOC(=O)NC(c1cccc(Cl)c1)C1CCCCCC1=O` (configuration not stated), under setting [1], the half-maximal activity concentration (AC50) is 23.1 µM [falling, single point].
`Cc1cc(=O)[nH]c(SCC(=O)Nc2ccc3c(c2)OCCO3)n1`: under setting [1], the AC50 is 6.31 µM [falling, single point].
On the same count and under the same terms, the same measure for `COc1ccc(/C=C2/Sc3ccc(C(=O)NCCCN4CCOCC4)cc3NC2=O)cc1OC`: 17.8 µM [rising, partial curve, poor fit]; for `O=C(COc1ccc(Br)cc1Cl)NC(=S)Nc1ccccn1`: 3.98 µM [rising, partial curve, poor fit]; for `CC1=Nc2nc(N3CCCCC3)c(C#N)c3c4c(nc(c23)N1)N(c1ccc(C(C)C)cc1)C(=O)C4`: 11.6 µM [falling, single point].
Same read-out and setting: the same measure for `COc1ccc(CCCC(=O)NCc2ccccc2)cc1C`: 10.3 µM [rising, partial curve, poor fit]; for `Cc1cccc(C)c1OCC(=O)NNC(=O)CNC(=O)c1ccc(OC(F)F)cc1`: 0.411 µM [rising, full curve, poor fit].
For the compound `COc1ccc2nc(C)cc(N/N=C/c3cccc(OC)c3O)c2c1`, the AC50 was 11.2 µM [falling, partial curve] under setting [1] and 8.91 µM [rising, partial curve, poor fit] under setting [2].
On to `O=C(Cn1ccc(NC(=O)OCc2ccccc2)nc1=O)NCc1ccccn1`, for which the concentration at half-maximal activity (AC50) under setting [1] was 0.0326 µM [rising, full curve, poor fit].
The same measure, in the same setting: then `O=C(C1=NN[C@@H]2C(=O)N(c3cccc(F)c3)C(=O)[C@H]12)c1cnccn1`, with 35.5 µM [falling, single point].
On the same count and under the same terms, then `COc1cccc(NC(=O)CS(=O)(=O)c2cn(CC(=O)N3CCOCC3)c3ccccc23)c1`, with 11.2 µM [falling, single point].
On the same count and under the same terms, the same measure for `Cc1ccc(NC(=O)c2cc(-c3ccccc3O)n[nH]2)cc1Cl`: 1.12 µM [falling, partial curve, poor fit]; for `COc1cc(C(=O)N/N=C(\C)c2ccccn2)cc(OC)c1OC`: 5.01 µM [rising, partial curve, poor fit]; for `CCCCNc1nc(Nc2ccc(C)c(Cl)c2)c2cnn(C)c2n1`: 0.562 µM [falling, full curve, poor fit].
As for `O=C(NCc1ccccn1)c1cc2ccccc2oc1=O`, under setting [1], the AC50 was 20.6 µM [falling, single point].
With `Cc1cc(C)nc(SSc2nc(C)cc(C)n2)n1`, the concentration at half-maximal activity (AC50) under setting [2] is 25.1 µM [falling, single point].
On to `O=C(COC(=O)c1n[nH]c(=O)c2ccccc12)NCc1ccccc1`, for which the AC50 under setting [1] was 2.91 µM [rising, single point].
`Cc1nn(-c2ccccc2)c(C)c1/C=N/NC(=O)c1cc(-c2ccccc2)n[nH]1`: the concentration at half-maximal activity (AC50) runs as follows: under setting [1], 29.1 µM [falling, single point]; under setting [2], 4.11 µM [falling, full curve].
Take `O=C1/C(=C/c2ccccc2[N+](=O)[O-])COc2ccccc21`: under setting [1], the AC50 was 12.6 µM [falling, partial curve, poor fit].
